# Taken from: PubChem BioAssay AID1508597 (Cure First, 2020)
# Test: 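Survival screen with siRNA in ovarian cancer cells derived from patients, with or without rucaparib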 (primary screen)
# Cells: human ovarian carcinoma lines grown from tumours: OCI-P5x (papillary serous) and OCI-C5x (clear cell)
# Knock-down reagent: siRNA pool against human genes, 1.25 pmol siRNA per well
# Duration: 72 h or 96 h, depending on the cell culture
# Challenge: rucaparib 20 µM (about IC30) or vehicle, present until read-out
# Rucaparib or vehicle: Rucaparib
# Cell line: OCI-P5x (serous)
# Detection: 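Luminescent ATP-based viability assay read 72 or 96 h after transfection, depending on culture, given as normalised percent viability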
# Reading the numbers: viability, normalised: higher = more viable cells remaining
# Call rule: 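a well counts as a hit if its normalised viability is under 80 percent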
# Meaning of the calls: active = viability under 80%; inactive = viability 80% or more
# Shown is a random part of the about 2,100 reagents, in one setting of the screen. 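Calls flag viability under 80% in either arm, not effects specific to rucaparib; the reference for percent is not stated.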 Entries without a mark were called inactive. Some reagents were tested in more than one well and are listed for each. The record does not give: the 100% reference.
target,technical replicate,"viability, normalised (%)"
IP6K2 (inositol hexakisphosphate kinase 2),1,90
IP6K2 (inositol hexakisphosphate kinase 2),2,92.2
IP6K2 (inositol hexakisphosphate kinase 2),3,80.2
MTREX (Mtr4 exosome RNA helicase),1,48.2 (active)
MTREX (Mtr4 exosome RNA helicase),2,57.3 (active)
MTREX (Mtr4 exosome RNA helicase),3,52.4 (active)
RIC8A (RIC8 guanine nucleotide exchange factor A),1,19.4 (active)
RIC8A (RIC8 guanine nucleotide exchange factor A),2,37.5 (active)
RIC8A (RIC8 guanine nucleotide exchange factor A),3,33.3 (active)
CENPV (centromere protein V),1,65.8 (active)
CENPV (centromere protein V),2,59 (active)
CENPV (centromere protein V),3,60.9 (active)
JAK2 (Janus kinase 2),1,123
JAK2 (Janus kinase 2),1,73 (active)
JAK2 (Janus kinase 2),2,121
JAK2 (Janus kinase 2),2,59.3 (active)
JAK2 (Janus kinase 2),3,123
JAK2 (Janus kinase 2),3,66.5 (active)
NME6 (NME/NM23 nucleoside diphosphate kinase 6),1,61.7 (active)
NME6 (NME/NM23 nucleoside diphosphate kinase 6),1,83.2
NME6 (NME/NM23 nucleoside diphosphate kinase 6),2,75.3 (active)
NME6 (NME/NM23 nucleoside diphosphate kinase 6),2,65.7 (active)
NME6 (NME/NM23 nucleoside diphosphate kinase 6),3,63.6 (active)
NME6 (NME/NM23 nucleoside diphosphate kinase 6),3,65.1 (active)
NPM2 (nucleophosmin/nucleoplasmin 2),1,51.6 (active)
NPM2 (nucleophosmin/nucleoplasmin 2),2,62 (active)
NPM2 (nucleophosmin/nucleoplasmin 2),3,70.8 (active)
PHF10 (PHD finger protein 10),1,54.6 (active)
PHF10 (PHD finger protein 10),2,51.4 (active)
PHF10 (PHD finger protein 10),3,60.6 (active)
VRK3 (VRK serine/threonine kinase 3),1,60.2 (active)
VRK3 (VRK serine/threonine kinase 3),1,147
VRK3 (VRK serine/threonine kinase 3),2,134
VRK3 (VRK serine/threonine kinase 3),2,59.6 (active)
VRK3 (VRK serine/threonine kinase 3),3,65.2 (active)
VRK3 (VRK serine/threonine kinase 3),3,120
RPS6KB1 (ribosomal protein S6 kinase B1),1,80
RPS6KB1 (ribosomal protein S6 kinase B1),1,54.2 (active)
RPS6KB1 (ribosomal protein S6 kinase B1),2,78.5 (active)
RPS6KB1 (ribosomal protein S6 kinase B1),2,50.2 (active)
RPS6KB1 (ribosomal protein S6 kinase B1),3,69.7 (active)
RPS6KB1 (ribosomal protein S6 kinase B1),3,47.6 (active)
PRKAR1A,1,91.5
PRKAR1A,2,66.9 (active)
PRKAR1A,3,63.6 (active)
MTF2 (metal response element binding transcription factor 2),1,65.7 (active)
MTF2 (metal response element binding transcription factor 2),2,54.3 (active)
MTF2 (metal response element binding transcription factor 2),3,75.7 (active)
SGK2 (serum/glucocorticoid regulated kinase 2),1,115
SGK2 (serum/glucocorticoid regulated kinase 2),2,128
SGK2 (serum/glucocorticoid regulated kinase 2),3,87.7
PWWP3B (PWWP domain containing 3B),1,53.3 (active)
PWWP3B (PWWP domain containing 3B),2,56.4 (active)
PWWP3B (PWWP domain containing 3B),3,62 (active)
CLCF1 (cardiotrophin like cytokine factor 1),1,66.3 (active)
CLCF1 (cardiotrophin like cytokine factor 1),2,67 (active)
CLCF1 (cardiotrophin like cytokine factor 1),3,73.7 (active)

Targets listed so far whose target name starts with R or r:
target,technical replicate,"viability, normalised (%)"
RIC8A (RIC8 guanine nucleotide exchange factor A),1,19.4 (active)
RIC8A (RIC8 guanine nucleotide exchange factor A),2,37.5 (active)
RIC8A (RIC8 guanine nucleotide exchange factor A),3,33.3 (active)
RPS6KB1 (ribosomal protein S6 kinase B1),1,80
RPS6KB1 (ribosomal protein S6 kinase B1),1,54.2 (active)
RPS6KB1 (ribosomal protein S6 kinase B1),2,78.5 (active)
RPS6KB1 (ribosomal protein S6 kinase B1),2,50.2 (active)
RPS6KB1 (ribosomal protein S6 kinase B1),3,69.7 (active)
RPS6KB1 (ribosomal protein S6 kinase B1),3,47.6 (active)
